# Measurements from paper PMC7819943, “Rice protein-binding microarrays: a tool to detect cis-acting elements near promoter regions in rice”.
# Sequences of proteins named here, by UniProt entry; tags and fusion partners are left off.
# UniProt Q0JBA9, entry or part of it: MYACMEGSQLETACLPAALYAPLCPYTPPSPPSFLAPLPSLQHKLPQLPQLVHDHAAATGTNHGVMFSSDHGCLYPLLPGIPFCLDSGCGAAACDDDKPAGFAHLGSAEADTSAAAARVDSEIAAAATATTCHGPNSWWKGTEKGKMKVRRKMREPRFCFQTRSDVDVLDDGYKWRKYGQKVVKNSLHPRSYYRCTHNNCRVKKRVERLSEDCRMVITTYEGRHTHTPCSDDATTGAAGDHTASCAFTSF
# This is one part of the list.
# Molecular target: OsWRKY34 (Oryza sativa, UniProt Q0JBA9 1-250)
# Assay: protein-binding microarray (RPBM); PBS, 2% BSA, 51.3 ng/ul salmon testes DNA, 50 uM zinc acetate, 200 nM TF, 25 C, 1 h; high values mean tight binding
# Details: protein: recombinant; tags: N-terminal polyhistidine and DsRed monomer fusion (pET32a); label: CyDye5-dUTP incorporated in the synthesized complementary strand; 3' TTTTT single-stranded linker to array surface; dsDNA, one strand shown
# Summary of the method: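 Binding signal here means per-feature fluorescence intensity in arbitrary units. The values were read on an Axon 4000B scanner after a custom Agilent array, double-stranded by primer extension with Cy5-dUTP, was incubated with 200 nM protein at 25 °C for 1 h in PBS with 2% BSA, salmon testes DNA and 50 µM zinc acetate, then washed. The proteins were transcription factors with an N-terminal polyhistidine tag and DsRed, expressed in E. coli BL21-CodonPlus and purified on Ni–NTA.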
row,Sequence,binding signal
1,CACACTCCACAGACGTCTACCTGACTTTTTATGCTATGTTCGGAGTCACCTAGTGCAG,10400 fluorescence intensity (a.u.)
2,GACCGGCATTACACTTCTCCTAATATATGGGATTAGGTGACGGAGTCACCTAGTGCAG,9510 fluorescence intensity (a.u.)
3,ACCTACCTGACTTCACCGTTCGAGTTCAACAATACCTATGCGGAGTCACCTAGTGCAG,9060 fluorescence intensity (a.u.)
4,TTTTCTGGCCTTAGCGGCACATAGATTTCCGCCCAAAACCCGGAGTCACCTAGTGCAG,10800 fluorescence intensity (a.u.)
5,CGATCTCTGTTGTATAAATCTTGTCATATTTCGTTAACGACGGAGTCACCTAGTGCAG,9240 fluorescence intensity (a.u.)
6,AACTCTATCGCTCTTTTCCTAACTATCTGTTCTATGTACCCGGAGTCACCTAGTGCAG,8160 fluorescence intensity (a.u.)
7,ATATCATTTAAAATATTTTTTTTATCGACATGTGGTTGTCCGGAGTCACCTAGTGCAG,11000 fluorescence intensity (a.u.)
8,GAACTTTCCTACACACACAAATTTTCAACTTTTCCATCACCGGAGTCACCTAGTGCAG,12400 fluorescence intensity (a.u.)
9,TTCATATAGGGTATGCCTCTGTCTAAGGTTGTTTGAAAATCGGAGTCACCTAGTGCAG,8940 fluorescence intensity (a.u.)
10,CCTTTTTTTTTACCTACCTCACCACTCAACCTTTTTGCCCCGGAGTCACCTAGTGCAG,8660 fluorescence intensity (a.u.)
11,TTTGCTCGGAGGATAGTATGGCTTTGGGTGGGCCGGATTCCGGAGTCACCTAGTGCAG,11100 fluorescence intensity (a.u.)
12,TCAGATTCAGCTTCATATGCATACCGTACGACTGTCAATTCGGAGTCACCTAGTGCAG,9540 fluorescence intensity (a.u.)
13,CTGTCCGATCCCCTGTCCCAGCACCCTCGTCGCATGTCCACGGAGTCACCTAGTGCAG,12500 fluorescence intensity (a.u.)
14,TCCTCTCTTCCCGTCACCTTGGTTTGCCGTCGTCGGCGTCCGGAGTCACCTAGTGCAG,9270 fluorescence intensity (a.u.)
15,GTTAACCCCTGTTATATTCATGATTAGTTGCTATTAATTCCGGAGTCACCTAGTGCAG,9750 fluorescence intensity (a.u.)
16,TGACTTGTATTTCTTGTGTCTGTTTCTCATCGAGTCATGACGGAGTCACCTAGTGCAG,10900 fluorescence intensity (a.u.)
17,TTCTTTAATCATTATCTTCAGACATGAATCACGTTGACTGCGGAGTCACCTAGTGCAG,9740 fluorescence intensity (a.u.)
18,TTCTCTTGATTTGCACCAGCATTTTCTTAGGGTCATTTATCGGAGTCACCTAGTGCAG,9570 fluorescence intensity (a.u.)
19,CTGTAAAGTCAAAGTGGTCAAAGGGGAGGGGAGATGTGGGCGGAGTCACCTAGTGCAG,14600 fluorescence intensity (a.u.)
20,TACATTGGTATCTATAGCTCTCTCATGCATTGCCTCGTTTCGGAGTCACCTAGTGCAG,8230 fluorescence intensity (a.u.)
21,TCACCTCGCCGCCGCCGCCATCGCCTTCTCAATCCCCAATCGGAGTCACCTAGTGCAG,9630 fluorescence intensity (a.u.)

# Laid out differently: results already given.
row | Sequence | binding signal
6 | AACTCTATCGCTCTTTTCCTAACTATCTGTTCTATGTACCCGGAGTCACCTAGTGCAG | 8160 fluorescence intensity (a.u.)
7 | ATATCATTTAAAATATTTTTTTTATCGACATGTGGTTGTCCGGAGTCACCTAGTGCAG | 11000 fluorescence intensity (a.u.)

# Carrying on:

row,Sequence,binding signal
1,AACATTTTTTACATTGTCACTGTGGTTTTCACTAACATGACGGAGTCACCTAGTGCAG,8320 fluorescence intensity (a.u.)
2,ACTCCGCCATGCCGCGCCGGTCTCCTAGGTTTTCCACTGACGGAGTCACCTAGTGCAG,9270 fluorescence intensity (a.u.)
3,GTTGGGTTGAGAATTTTGATGCGTGTGTGAGGTTTGATCTCGGAGTCACCTAGTGCAG,13500 fluorescence intensity (a.u.)
4,CTTGGTCTTCATCTGACGTGGCGCTTACGTGGCAATTTGACGGAGTCACCTAGTGCAG,8800 fluorescence intensity (a.u.)
5,CTGATCGATCTCCTGATATTTCTTAGGTATATTGCTTGGCCGGAGTCACCTAGTGCAG,8070 fluorescence intensity (a.u.)
6,TTGCTGGATTTCATACTCCCACACCCTAATTTGTTGATTTCGGAGTCACCTAGTGCAG,10100 fluorescence intensity (a.u.)
7,ATATTTGATGTGATGTTTTTGGCCAAAATTTTTTTAGATCCGGAGTCACCTAGTGCAG,8500 fluorescence intensity (a.u.)
8,CGGTCTTGCGACACCACCGATTGTTCGGCTTGCACTGACACGGAGTCACCTAGTGCAG,8470 fluorescence intensity (a.u.)
9,CCACACATCACAATTCACACCTTACTGCGGCCGTCGTTTACGGAGTCACCTAGTGCAG,9310 fluorescence intensity (a.u.)
10,CCGCTGCCCGTCCCCGCAACCCAACGCCTGATTCGCTTCTCGGAGTCACCTAGTGCAG,9810 fluorescence intensity (a.u.)
11,AGGGTGAGAGAGAGTGAGTTTGTTTATTTCGTTTTCCGCGCGGAGTCACCTAGTGCAG,10100 fluorescence intensity (a.u.)
12,GTCATGGTCACCAGTTCCAGTTTTTCCGGTTCAACAGCCGCGGAGTCACCTAGTGCAG,8650 fluorescence intensity (a.u.)
13,GGTTGGGACTTGGTAAGGTTGTGGTGGTGTCATATGTCTCCGGAGTCACCTAGTGCAG,13000 fluorescence intensity (a.u.)
14,TTACGATGACTCTTTACCTTGATTTTCATGAGTCTTTCTTCGGAGTCACCTAGTGCAG,10700 fluorescence intensity (a.u.)
15,ATATGTTGCCACGCTGGACCGCCACGTAAGTCAGTCAATCCGGAGTCACCTAGTGCAG,9020 fluorescence intensity (a.u.)
16,TGAATTTCGGTCTGTTTATTTGACCTGTTCTTGTACCTGACGGAGTCACCTAGTGCAG,8400 fluorescence intensity (a.u.)
17,TAGGTGGTCCCTTGCGGTTTTAGGGGTGTGAATTAAACTCCGGAGTCACCTAGTGCAG,9820 fluorescence intensity (a.u.)
18,TCTCGAGGTTGTTACATTGTACTTGTCGCTAGCTCGTCATCGGAGTCACCTAGTGCAG,8400 fluorescence intensity (a.u.)
19,CGCCGTTCCGGCCTCCTCTCTTACTTCTACTGCCGACCCCCGGAGTCACCTAGTGCAG,8090 fluorescence intensity (a.u.)
20,CGGGTTCTTCATGTGCTGACTTCATTCCATAATTCATGTTCGGAGTCACCTAGTGCAG,13600 fluorescence intensity (a.u.)
21,CACCTCGCCTAGGGTTTCGTCTCGGCTCGCGCGCCGCGGCCGGAGTCACCTAGTGCAG,8310 fluorescence intensity (a.u.)
